Assay [1] deals with T1, URL1 (UPWARD ROLLED LEAF1), HD-ZIP IV family member RICE OUTERMOST CELL-SPECIFIC 8 (ROC8), yeast two-hybrid fusion (rice (Oryza sativa L.)) (UniProt Q69T58).
T1 sequence: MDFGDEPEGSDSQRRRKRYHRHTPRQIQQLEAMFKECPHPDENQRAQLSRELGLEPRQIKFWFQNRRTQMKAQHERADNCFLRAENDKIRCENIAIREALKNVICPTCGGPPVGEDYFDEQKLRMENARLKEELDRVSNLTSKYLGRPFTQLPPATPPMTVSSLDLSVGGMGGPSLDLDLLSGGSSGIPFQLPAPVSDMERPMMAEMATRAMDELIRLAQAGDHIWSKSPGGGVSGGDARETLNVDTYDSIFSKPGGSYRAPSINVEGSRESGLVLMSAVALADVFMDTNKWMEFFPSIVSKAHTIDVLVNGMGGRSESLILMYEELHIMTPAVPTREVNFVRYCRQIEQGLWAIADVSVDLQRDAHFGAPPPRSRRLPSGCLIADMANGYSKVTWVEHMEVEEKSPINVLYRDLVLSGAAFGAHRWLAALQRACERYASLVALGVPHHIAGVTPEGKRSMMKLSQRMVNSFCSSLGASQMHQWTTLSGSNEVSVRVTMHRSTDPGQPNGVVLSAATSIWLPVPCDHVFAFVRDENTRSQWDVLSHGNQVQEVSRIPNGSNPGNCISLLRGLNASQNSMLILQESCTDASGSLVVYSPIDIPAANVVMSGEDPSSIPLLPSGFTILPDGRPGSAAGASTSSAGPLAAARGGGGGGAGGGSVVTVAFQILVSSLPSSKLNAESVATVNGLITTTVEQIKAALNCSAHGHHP
The assay is described as follows: two-hybrid; full-length URL1 and ROC5 in pGBKT7 or pGADT7; yeast strain AH109; growth on SD-Leu-Trp-His with 15 mM 3-AT and liquid beta-galactosidase activity assay.

Assay [2] concerns the target ROC5 (RICE OUTERMOST CELL-SPECIFIC 5), HD-ZIP IV family member, yeast two-hybrid fusion (rice (Oryza sativa L.)) (UniProt Q6EPF0). The assay is described as above.
Assay [3] deals with T2, Flag:HA:URL1 of the transgenic rice line B320 (ProActin1-Flag:HA:Url1) (rice (Oryza sativa L.)) (UniProt Q69T58).
T2 sequence: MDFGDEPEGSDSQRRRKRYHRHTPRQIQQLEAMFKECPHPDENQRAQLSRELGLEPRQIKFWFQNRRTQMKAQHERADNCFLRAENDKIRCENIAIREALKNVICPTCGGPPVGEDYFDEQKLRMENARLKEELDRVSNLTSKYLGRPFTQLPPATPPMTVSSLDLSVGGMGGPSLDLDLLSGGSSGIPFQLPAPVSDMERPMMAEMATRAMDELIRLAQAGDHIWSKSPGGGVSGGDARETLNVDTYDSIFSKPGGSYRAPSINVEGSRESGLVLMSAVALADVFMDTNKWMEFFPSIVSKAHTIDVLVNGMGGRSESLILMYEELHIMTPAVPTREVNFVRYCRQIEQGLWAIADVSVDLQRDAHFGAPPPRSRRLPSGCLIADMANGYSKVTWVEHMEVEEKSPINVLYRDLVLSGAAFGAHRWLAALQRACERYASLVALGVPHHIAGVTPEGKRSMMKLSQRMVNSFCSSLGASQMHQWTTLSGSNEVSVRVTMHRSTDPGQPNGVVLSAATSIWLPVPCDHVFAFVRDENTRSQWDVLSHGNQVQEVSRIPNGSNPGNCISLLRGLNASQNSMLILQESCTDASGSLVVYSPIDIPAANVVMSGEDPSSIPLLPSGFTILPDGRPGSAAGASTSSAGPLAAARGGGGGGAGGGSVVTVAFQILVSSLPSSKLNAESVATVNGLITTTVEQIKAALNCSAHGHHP
The assay is described as follows: co-IP; 6xMyc:ROC5 transiently expressed in protoplasts of transgenic rice B320 (Flag:HA:Url1); lysate supernatant incubated with anti-HA-conjugated agarose; immunoblot with anti-Myc and anti-HA. Background: Immunoblotting shows a protein as a band on a membrane.

Results are given in words; binding and its absence hold for the method and conditions named. For part of these data: In cells and extracts the contact can be indirect. Some entries that bind do so weakly or less than the wild type. Where a sequence is shown, tags or fusion partners need not be part of it.

B1: ROC5 (RICE OUTERMOST CELL-SPECIFIC 5), HD-ZIP IV family member, yeast two-hybrid fusion (protein, UniProt Q6EPF0 1-804)
chain: MSFGGLFDGGGGGGMQFPFASGFASSPALSLALDNAGGGIGGRMLGGGAGAGSSAGGAMTRDTEAENDSRSGSDHLDAISAAGEDDVEDAEPSNSRKRKKRYHRHTPQQIQELEALFKECPHPDEKQRAELSRRLSLDARQVKFWFQNRRTQMKTQLERHENALLKQENDKLRAENMTIREAMRSPMCGSCGSPAMLGEVSLEEQHLRIENARLKDELNRVCALATKFLGKPISLLSPPPLLQPHLSLPMPNSSLELAIGGIGGLGSLGTLPGCMNEFAGGVSSPMGTVITPARATGAAIPSLVGNIDRSVFLELAISAMDELVKMAQMDDPLWVPALPGSPSKEVLNFEEYLHSFLPCIGMKPAGYVSEASRESGLVIIDNSLALVETLMDERRWSDMFSCMIAKATVLEEVSTGIAGSRNGALLLMKAELQVLSPLVPIREVTFLRFCKQLAEGAWAVVDVSIDGLVRDHNSGTAPTGGNVKCRRVPSGCVMQDTPNGYCKVTWVEHTEYDEASVHQLYRPLLRSGLAFGARRWLATLQRQCECLAILMSSATVTANDSTAISQEGKRSMLKLARRMTENFCAGVSASSAREWSKLDGATGSIGEDVRVMARKSVSEPGEPPGVVLSAATSVWVPVAPEKLFNFLRDEQLRAEWDILSNGGPMQEMTQIAKGQRDGNSVSLLRASAVSANQSSMLILQETCTDASGSIVVYAPVDIPAMQLVMNGGDSTYVALLPSGFAILPDGPRIGATGYETGGSLLTVAFQILVNNQPTAKLTVESVETVNNLISCTIKKIKTALQCDA
For the molecule B1, the binding entry in assay [1] and in assay [2] was “binds” throughout.

B2: 6xMyc:ROC5 (MYC-ROC5 fusion protein) (protein, UniProt Q6EPF0 1-804)
chain: MSFGGLFDGGGGGGMQFPFASGFASSPALSLALDNAGGGIGGRMLGGGAGAGSSAGGAMTRDTEAENDSRSGSDHLDAISAAGEDDVEDAEPSNSRKRKKRYHRHTPQQIQELEALFKECPHPDEKQRAELSRRLSLDARQVKFWFQNRRTQMKTQLERHENALLKQENDKLRAENMTIREAMRSPMCGSCGSPAMLGEVSLEEQHLRIENARLKDELNRVCALATKFLGKPISLLSPPPLLQPHLSLPMPNSSLELAIGGIGGLGSLGTLPGCMNEFAGGVSSPMGTVITPARATGAAIPSLVGNIDRSVFLELAISAMDELVKMAQMDDPLWVPALPGSPSKEVLNFEEYLHSFLPCIGMKPAGYVSEASRESGLVIIDNSLALVETLMDERRWSDMFSCMIAKATVLEEVSTGIAGSRNGALLLMKAELQVLSPLVPIREVTFLRFCKQLAEGAWAVVDVSIDGLVRDHNSGTAPTGGNVKCRRVPSGCVMQDTPNGYCKVTWVEHTEYDEASVHQLYRPLLRSGLAFGARRWLATLQRQCECLAILMSSATVTANDSTAISQEGKRSMLKLARRMTENFCAGVSASSAREWSKLDGATGSIGEDVRVMARKSVSEPGEPPGVVLSAATSVWVPVAPEKLFNFLRDEQLRAEWDILSNGGPMQEMTQIAKGQRDGNSVSLLRASAVSANQSSMLILQETCTDASGSIVVYAPVDIPAMQLVMNGGDSTYVALLPSGFAILPDGPRIGATGYETGGSLLTVAFQILVNNQPTAKLTVESVETVNNLISCTIKKIKTALQCDA
Consider B2, for which, in assay [3], the binding entry was “binds”.
